Measured values reported in publication PMC7819943, “Rice protein-binding microarrays: a tool to detect cis-acting elements near promoter regions in rice”.
The list shows a part of the results.

By UniProt entry, the sequences of proteins in these tests, tags left out.
UniProt Q0JBA9, entry or part of it: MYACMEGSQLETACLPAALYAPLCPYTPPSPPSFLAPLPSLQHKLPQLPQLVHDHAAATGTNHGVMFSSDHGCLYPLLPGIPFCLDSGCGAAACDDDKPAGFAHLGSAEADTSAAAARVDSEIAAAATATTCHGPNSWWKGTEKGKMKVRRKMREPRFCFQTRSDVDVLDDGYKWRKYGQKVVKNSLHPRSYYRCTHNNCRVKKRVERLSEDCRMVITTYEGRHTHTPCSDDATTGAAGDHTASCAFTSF

target: OsWRKY34 (Oryza sativa, UniProt Q0JBA9 1-250); assay: protein-binding microarray (RPBM); PBS, 2% BSA, 51.3 ng/ul salmon testes DNA, 50 uM zinc acetate, 200 nM TF, 25 C, 1 h; high values mean tight binding; conditions: protein: recombinant; tags: N-terminal polyhistidine and DsRed monomer fusion (pET32a); label: CyDye5-dUTP incorporated in the synthesized complementary strand; 3' TTTTT single-stranded linker to array surface; dsDNA, one strand shown
Method in brief: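 Binding signal is defined as the fluorescence intensity of each feature in arbitrary units, read on an Axon 4000B scanner. Transcription factors with N-terminal polyhistidine and DsRed fusions came from E. coli BL21-CodonPlus and were purified on Ni–NTA. They were incubated at 200 nM for 1 h at 25 °C on a custom Agilent array that had been made double-stranded with Cy5-dUTP, with 50 µM zinc acetate present, and the array was washed.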

Compared with “TCATAGTCGGGCGTGGGAGGTTTTTTTTTTTGAGTCGGACCGGAGTCACCTAGTGCAG”, “GGGAACTTCGCCCGCCACCTGCGCCGATCTCCATCAATCTCGGAGTCACCTAGTGCAG” is higher in binding signal: 8130 fluorescence intensity (a.u.) for the first, 8540 fluorescence intensity (a.u.) for the second.

Compared with “CTCCTGCGCACGTTTTTTTGTCTGATGCTGCAGTTTTATACGGAGTCACCTAGTGCAG”, “TCATACATCCCACGTACGTGCATTCCACCAACAACCCTGACGGAGTCACCTAGTGCAG” is lower in binding signal: 12200 fluorescence intensity (a.u.) for the first, 10300 fluorescence intensity (a.u.) for the second.

Compared with “GAAGTATGTTGTTTGCTTGTGTTTGTGATGCTATATTGTTCGGAGTCACCTAGTGCAG”, “CGTTGTTGTTTACTCATTGTTTTGTTACCATACATGTCTTCGGAGTCACCTAGTGCAG” is higher in binding signal: 11100 fluorescence intensity (a.u.) for the first, 12700 fluorescence intensity (a.u.) for the second.

First: ATTACCGTTATTTATGCATCATTCACAATTTTTCCGTGATCGGAGTCACCTAGTGCAG
Second: CGAAGTGGGTCTCCTATCTGTGGATCTGGCGTGCTTAAAACGGAGTCACCTAGTGCAG
The binding signal of the first is lower: 8260 fluorescence intensity (a.u.) for the first, 8650 fluorescence intensity (a.u.) for the second.

Compared with “CATTTTCACCTAAATTGCCATTGTTTTGTGAGTTTCTTGCCGGAGTCACCTAGTGCAG”, “TAATTCTCTATTAGTCAAGTACTGTCCTAGCTCTAGTTTTCGGAGTCACCTAGTGCAG” is higher in binding signal: 8960 fluorescence intensity (a.u.) for the first, 11400 fluorescence intensity (a.u.) for the second.

Going from “ATACTGACCCAGCAAGTTTGACCACGGTTCACTTATCACGCGGAGTCACCTAGTGCAG” to “TGCGCTCATGGCCATCCATTTTCTTCTTCTTCTTTTTTTTCGGAGTCACCTAGTGCAG”, the binding signal falls from 10400 fluorescence intensity (a.u.) to 10300 fluorescence intensity (a.u.).

Compared with “TCCCCACCTGTCAGTACTTATGTTTTGACTTTTTGACCCACGGAGTCACCTAGTGCAG”, “TTGATGACAAGTTGAGGGTCCTTTAGTGTACTTTTTCTTACGGAGTCACCTAGTGCAG” is lower in binding signal: 14300 fluorescence intensity (a.u.) for the first, 8120 fluorescence intensity (a.u.) for the second.

First: CGTTGAAAGCATCCGTCCGTAGCCCCGGTCGCCTTCCACCCGGAGTCACCTAGTGCAG
Second: ATGGATGGTATTGCCTTGAGCTTTAAAAACACAACCTTTCCGGAGTCACCTAGTGCAG
The binding signal of the first is lower: 8560 fluorescence intensity (a.u.) for the first, 9240 fluorescence intensity (a.u.) for the second.

Compared with “CCCCATCTTTTAGCCCAATAACAACGGGGTCATCTTTTTTCGGAGTCACCTAGTGCAG”, “TGTGGTCCAATCAAACTGCCATTCATATGTTTTTCCTTTACGGAGTCACCTAGTGCAG” is higher in binding signal: 9260 fluorescence intensity (a.u.) for the first, 9590 fluorescence intensity (a.u.) for the second.

First: CGCTCGCCCTTCTCCGCTTCGCGTGTTGTACTGTTCTCCCCGGAGTCACCTAGTGCAG
Second: ATCTTCCATCTCTCTTTCCCTAGGACGCGCAGCGCTGTTTCGGAGTCACCTAGTGCAG
The binding signal of the first is lower: 8210 fluorescence intensity (a.u.) for the first, 8680 fluorescence intensity (a.u.) for the second.

Compared with “ATGCTACTTATCTCACATGATGTCTTGGGTATTGTGTAGACGGAGTCACCTAGTGCAG”, “TCACCATAGTTCTGCTACCTGCTCGTCTCACTCTAGTTGCCGGAGTCACCTAGTGCAG” is higher in binding signal: 8100 fluorescence intensity (a.u.) for the first, 11400 fluorescence intensity (a.u.) for the second.

First: ATTAGTATACTTTCTCTCTTTGCTTTTTTTTTTCCTTTCTCGGAGTCACCTAGTGCAG
Second: CTCCTTACGCCGGCACGAATCGCCTCCCTGATGTTGACCCCGGAGTCACCTAGTGCAG
The binding signal of the first is lower: 8710 fluorescence intensity (a.u.) for the first, 9340 fluorescence intensity (a.u.) for the second.

First: AGATTGGGGCTGGCAGTAGAGCGACGGGTTTCGCGGCCGTCGGAGTCACCTAGTGCAG
Second: CGACGACTTATCACGATGCAGCAAGTGACGTTGACCACGCCGGAGTCACCTAGTGCAG
The binding signal of the first is lower: 8960 fluorescence intensity (a.u.) for the first, 9580 fluorescence intensity (a.u.) for the second.

Compared with “TGCATTAGTCTATCTAGGTTGGTTGTTTGCATTAGTCTATCGGAGTCACCTAGTGCAG”, “TTACTCAAGCAAACCCTCTAGAGTCATTTTCTTTATTGCACGGAGTCACCTAGTGCAG” is lower in binding signal: 11000 fluorescence intensity (a.u.) for the first, 8650 fluorescence intensity (a.u.) for the second.

Going from “TTTCTTCCGCTCCACGCCGCCCTCCGCCGCCGCCGCCATGCGGAGTCACCTAGTGCAG” to “AAGTCCGCCGCCATTTTCTTCTCGCCCCATCCCTGCGCCCCGGAGTCACCTAGTGCAG”, the binding signal rises from 8040 fluorescence intensity (a.u.) to 10900 fluorescence intensity (a.u.).

Going from “CCTGCATGGCTTGCTGGCTCGTGTCCGCGTCGTACGACGACGGAGTCACCTAGTGCAG” to “GCCGTCAATCGTGGCAGCCAATCGTTTCGTCGTTCGTCCACGGAGTCACCTAGTGCAG”, the binding signal falls from 8920 fluorescence intensity (a.u.) to 8150 fluorescence intensity (a.u.).

Going from “GCCCACATGCCAGCCACTGCCACCGGCCGCCTTCCGAGCCCGGAGTCACCTAGTGCAG” to “TATACTTGTTGGCTGCTGCTTTGTGTGTGGTGTGTTGTTTCGGAGTCACCTAGTGCAG”, the binding signal rises from 8970 fluorescence intensity (a.u.) to 10400 fluorescence intensity (a.u.).

Compared with “TCGTGTCTCGGTATATCAGAATCTCCTACAACGTTCTCGACGGAGTCACCTAGTGCAG”, “ATCCACACACCGCTTGATTTCAGTCGCAAAAGGCTTCAGTCGGAGTCACCTAGTGCAG” is higher in binding signal: 8640 fluorescence intensity (a.u.) for the first, 8720 fluorescence intensity (a.u.) for the second.

Going from “TCTTCCACTTCATCTTCTTCCATTTCAACACCTTGCTCCTCGGAGTCACCTAGTGCAG” to “CTCGCCGTCTGCTCCTCTGATCGGCCTCCTCAGTTGACACCGGAGTCACCTAGTGCAG”, the binding signal rises from 8310 fluorescence intensity (a.u.) to 9980 fluorescence intensity (a.u.).

First: CCCATCAACCGCCAAAGACTTCCCGCGCGCGTCTACATATCGGAGTCACCTAGTGCAG
Second: GCTGCACTTTTGCATCATTTTGCCTGCATTCTTATGTCCGCGGAGTCACCTAGTGCAG
The binding signal of the first is higher: 8450 fluorescence intensity (a.u.) for the first, 8140 fluorescence intensity (a.u.) for the second.

Compared with “TCTCAACGACACGACGACATCCGCTTGTATTTCTTTCGTTCGGAGTCACCTAGTGCAG”, “TTCCCAACAAATCACAATCCTCCACCATTCACTTTTCCCACGGAGTCACCTAGTGCAG” is lower in binding signal: 10500 fluorescence intensity (a.u.) for the first, 8420 fluorescence intensity (a.u.) for the second.
